In patent publication US20100086602A1, “PHARMACEUTICAL COMPOSITION CONTAINING STATIN-ENCAPSULATED NANOPARTICLE” (priority 2006, published 2010):

How the values were obtained:
Type in all cases: in vivo, mice
[1] = system: unilateral hindlimb ischemia; experiment: Capillary density by immunohistochemical staining with anti-mouse PECAM-1 (CD31) antibody; conditions: day 14 after hindlimb ischemia; 0.01 mg statin intramuscular
Experimental: (§1) A group of PLGA-Pit-mice (PLGA-Pit group) and a group of PEG/CS-PLGA-Pit-mice (PEG/CS-Pit group) received intramuscular injections of pitavastatin-loaded PLGA nanoparticles (0.18 mg/100 μl) and pitavastatin-loaded PEG/CS-PLGA nanoparticles (0.44 mg/100 μl, each containing 0.01 mg of pitavastatin), respectively. As control, a group of PLGA-mice (PLGA group) received intramuscular injections of PLGA nanoparticles (0.18 mg/100 μl) and another group of mice (NT group) received no treatment.

[2] = system: unilateral hindlimb ischemia; experiment: Laser Doppler perfusion imaging of limb blood flow after hindlimb ischemia; conditions: single intramuscular injection containing 0.01 mg statin (0.5 mg/kg); days 0, 3, 7 and 14; versus no-treatment; listed as Ato
Experimental: as §1

[3] = system: unilateral hindlimb ischemia; experiment: Vascular structure of diameter over 20 μm in hindlimb muscle; conditions: day 14 after hindlimb ischemia; 0.01 mg atorvastatin intramuscular

CC(C)c1c(C(=O)Nc2ccccc2)c(-c2ccccc2)c(-c2ccc(F)cc2)n1CC[C@@H](O)C[C@@H](O)CC(=O)O [atorvastatin]
capillary density, endothelial cells (CD31 positive cells) [1]: comparable to no-treatment group
limb blood flow at ischemic side (LDPI index, ratio of ischemic to normal limb) [2]: no improvement of blood flow
vascular structure having diameter of over 20 μm [3]: comparable to no-treatment group
